Data taken from patent US20030108992A1.
Results are given in words; binding and its absence hold for the method and conditions named. Some binding calls cover weakened binding; strength is not graded here. For some assays here: Where a sequence is shown, tags or fusion partners need not be part of it.

Key:
[1] = molecular target: T1, Fas (endogenous, native receptor on T lymphoma cells), P25445; test: immunoprecipitation of Fas signaling complexes from H9 cells after APO-1 or FasL, Western blot; conditions: remark: other sources report otherwise
T1 chain: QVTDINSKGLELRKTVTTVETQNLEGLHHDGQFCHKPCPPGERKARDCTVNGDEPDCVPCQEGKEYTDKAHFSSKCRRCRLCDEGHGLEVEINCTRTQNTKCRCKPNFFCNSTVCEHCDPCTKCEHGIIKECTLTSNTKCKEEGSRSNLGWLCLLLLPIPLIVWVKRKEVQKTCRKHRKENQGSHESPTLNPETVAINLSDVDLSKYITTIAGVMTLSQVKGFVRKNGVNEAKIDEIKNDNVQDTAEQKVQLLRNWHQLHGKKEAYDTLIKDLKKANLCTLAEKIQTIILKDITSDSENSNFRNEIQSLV

[2] = molecular target: T2, Fas with the death domain, CFP and YFP fusions (human), P25445; test: flow cytometric FRET, 293T; conditions: remark: other sources report otherwise
T2 chain: T1 chain

B1: FADD, Q13158 1-208 (protein, UniProt Q13158 1-208, looked up)
chain: MDPFLVLLHSVSSSLSSSELTELKFLCLGRVGKRKLERVQSGLDLFSMLLEQNDLEPGHTELLRELLASLRRHDLLRRVDDFEAGAAAGAAPGEEDLCAAFNVICDNVGKDWRRLARQLKVSDTKIDSIEDRYPRNLTERVRESLRIWKNTEKENATVAHLVGALRSCQMNLVADLVQEVQQARDLQNRSGAMSPMSWNSDASTSEAS
[1]
  binding: binds

B2: Fas with the death domain, CFP and YFP fusions, P25445 26-335 (receptor, human, UniProt P25445 26-335, looked up, not shown: large carriers)
chain: T1 chain
[2]
  binding: binds
